Assay results: paper PMC8586334
These are yes or no findings as the source states them, for the method shown. Some entries that bind do so weakly or less than the wild type.

By UniProt entry, the sequences of proteins in these tests, tags left out. Where a name states a change or a piece, a line headed by the entry shows the natural chain unless it says otherwise.
UniProt P22336: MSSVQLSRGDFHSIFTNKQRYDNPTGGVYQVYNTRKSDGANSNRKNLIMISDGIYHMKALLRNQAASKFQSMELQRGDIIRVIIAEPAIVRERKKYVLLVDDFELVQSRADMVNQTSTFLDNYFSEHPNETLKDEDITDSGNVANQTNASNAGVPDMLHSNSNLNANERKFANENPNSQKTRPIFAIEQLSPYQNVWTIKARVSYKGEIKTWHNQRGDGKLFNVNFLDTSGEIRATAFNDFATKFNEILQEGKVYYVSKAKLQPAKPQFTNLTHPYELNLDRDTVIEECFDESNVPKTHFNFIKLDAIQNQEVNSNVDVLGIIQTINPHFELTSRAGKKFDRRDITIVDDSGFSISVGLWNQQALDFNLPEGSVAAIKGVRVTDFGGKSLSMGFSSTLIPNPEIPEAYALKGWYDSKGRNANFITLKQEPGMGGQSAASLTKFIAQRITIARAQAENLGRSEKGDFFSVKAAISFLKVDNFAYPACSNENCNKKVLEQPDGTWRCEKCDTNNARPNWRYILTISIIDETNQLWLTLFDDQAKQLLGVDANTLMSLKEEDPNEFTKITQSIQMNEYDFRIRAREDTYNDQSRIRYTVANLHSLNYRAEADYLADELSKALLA
UniProt P38859: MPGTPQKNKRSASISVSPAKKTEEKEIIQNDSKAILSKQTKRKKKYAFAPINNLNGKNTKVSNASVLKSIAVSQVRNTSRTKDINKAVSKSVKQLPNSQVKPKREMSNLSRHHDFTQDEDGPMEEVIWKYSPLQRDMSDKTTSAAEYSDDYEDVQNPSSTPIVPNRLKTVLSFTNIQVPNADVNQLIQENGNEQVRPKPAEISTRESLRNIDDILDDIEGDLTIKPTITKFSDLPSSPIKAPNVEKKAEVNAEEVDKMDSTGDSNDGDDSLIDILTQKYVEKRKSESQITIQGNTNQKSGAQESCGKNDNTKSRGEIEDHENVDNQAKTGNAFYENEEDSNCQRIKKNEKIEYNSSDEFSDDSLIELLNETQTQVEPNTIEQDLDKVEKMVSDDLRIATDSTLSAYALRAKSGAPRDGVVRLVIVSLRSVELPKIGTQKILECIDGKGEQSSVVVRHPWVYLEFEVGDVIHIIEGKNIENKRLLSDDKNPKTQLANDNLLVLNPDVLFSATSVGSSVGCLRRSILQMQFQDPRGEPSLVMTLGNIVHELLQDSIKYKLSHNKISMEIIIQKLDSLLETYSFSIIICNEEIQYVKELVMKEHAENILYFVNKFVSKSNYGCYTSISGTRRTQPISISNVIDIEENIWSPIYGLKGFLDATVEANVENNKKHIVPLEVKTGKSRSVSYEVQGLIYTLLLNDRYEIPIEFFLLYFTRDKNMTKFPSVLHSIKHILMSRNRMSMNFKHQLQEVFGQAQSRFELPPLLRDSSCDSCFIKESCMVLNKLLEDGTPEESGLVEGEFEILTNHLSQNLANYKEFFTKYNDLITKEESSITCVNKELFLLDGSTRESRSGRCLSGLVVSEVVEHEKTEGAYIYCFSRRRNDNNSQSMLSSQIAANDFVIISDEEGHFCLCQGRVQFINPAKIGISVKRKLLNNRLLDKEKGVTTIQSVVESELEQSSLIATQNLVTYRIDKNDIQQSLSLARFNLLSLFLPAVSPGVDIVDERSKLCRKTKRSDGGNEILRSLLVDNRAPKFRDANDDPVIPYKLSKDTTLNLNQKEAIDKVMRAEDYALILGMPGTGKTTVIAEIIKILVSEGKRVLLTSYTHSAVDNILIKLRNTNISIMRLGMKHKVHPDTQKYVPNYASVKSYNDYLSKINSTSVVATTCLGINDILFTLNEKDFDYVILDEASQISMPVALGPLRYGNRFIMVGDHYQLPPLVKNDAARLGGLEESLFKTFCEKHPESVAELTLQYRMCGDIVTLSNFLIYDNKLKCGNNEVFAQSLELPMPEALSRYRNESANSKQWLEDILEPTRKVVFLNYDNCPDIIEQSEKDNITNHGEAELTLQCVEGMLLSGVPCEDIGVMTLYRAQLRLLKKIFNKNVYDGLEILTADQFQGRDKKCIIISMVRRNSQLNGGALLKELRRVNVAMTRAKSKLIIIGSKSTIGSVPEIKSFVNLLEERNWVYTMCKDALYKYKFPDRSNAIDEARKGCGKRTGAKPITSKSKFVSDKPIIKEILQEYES
UniProt P26754: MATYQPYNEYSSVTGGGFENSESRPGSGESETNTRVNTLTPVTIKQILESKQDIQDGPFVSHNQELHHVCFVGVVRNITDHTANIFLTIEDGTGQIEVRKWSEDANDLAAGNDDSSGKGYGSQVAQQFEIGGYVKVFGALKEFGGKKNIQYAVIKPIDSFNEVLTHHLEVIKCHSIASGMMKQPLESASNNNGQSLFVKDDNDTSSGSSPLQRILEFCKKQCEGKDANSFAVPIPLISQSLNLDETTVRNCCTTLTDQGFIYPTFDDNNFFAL
UniProt P26755: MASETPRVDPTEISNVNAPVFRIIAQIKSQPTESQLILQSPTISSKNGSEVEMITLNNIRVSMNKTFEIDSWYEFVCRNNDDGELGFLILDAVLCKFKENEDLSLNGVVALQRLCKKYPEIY

What was measured:
[1] = target: Rfa1, large subunit, as co-expressed in the S. cerevisiae RPA heterotrimer (S. cerevisiae) (UniProt P22336); assay: mass photometry; no DNA; proteins alone or pre-mixed 15 min at room temperature in 25 mM Tris-acetate pH 7.5, 150 mM NaCl, 3 mM EDTA; final 20-80 nM of each protein; both purified
[2] = target: S. cerevisiae Dna2, wild type (S. cerevisiae) (UniProt P38859); assay: as above
[3] = target: T1, Human mitochondrial ssDNA binding protein (mtSSB) (human) (UniProt Q04837); assay: native gel or EMSA; DNA recruitment assay: Dna2-E675A added to 5'-overhanged DNA (45 nt ssDNA, 48 bp dsDNA, 1 nM) precoated on ice for 5 min with RPA variant or mtSSB (8 nM); 5 mM Mg2+, 150 mM NaCl; 4% polyacrylamide gel; both purified
T1 sequence: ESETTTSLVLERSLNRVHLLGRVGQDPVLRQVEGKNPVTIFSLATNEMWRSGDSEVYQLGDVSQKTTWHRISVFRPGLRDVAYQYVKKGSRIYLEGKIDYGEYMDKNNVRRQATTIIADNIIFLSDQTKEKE

Substance | binding [1] | further results
Rfa2, subunit, as co-expressed in the S. cerevisiae RPA heterotrimer (from UniProt P26754 1-273) | binds | 
Rfa3, subunit, as co-expressed in the S. cerevisiae RPA heterotrimer (from UniProt P26755 1-122) | binds | 
S. cerevisiae Dna2, wild type (from UniProt P38859 1-1522) (enzyme) |  | binding [2]: no binding (tested: 20-80 nM)
S. cerevisiae Dna2-E675A (nuclease-dead) (from UniProt P38859 1-1522) (enzyme) |  | binding [3]: no binding
